Measured values as given in article PMC7438092.
These are yes or no findings as the source states them, for the method shown. Some results given as binding are weak or reduced against the parent protein; the word gives no strength. Tags and fused reporters may be left off the sequences shown.

How the values were obtained:
Settings in all cases: remark: other sources report otherwise
[1] = target: T1, Vps24 (Saccharomyces cerevisiae ESCRT-III subunit), full length, wild type (Saccharomyces cerevisiae), P36095; test: co-sedimentation; pelletation without liposomes; purified proteins at 2 mg/ml, 175,000g for 45 min at 20°C, supernatant and pellet by SDS-PAGE; both purified
T1 chain: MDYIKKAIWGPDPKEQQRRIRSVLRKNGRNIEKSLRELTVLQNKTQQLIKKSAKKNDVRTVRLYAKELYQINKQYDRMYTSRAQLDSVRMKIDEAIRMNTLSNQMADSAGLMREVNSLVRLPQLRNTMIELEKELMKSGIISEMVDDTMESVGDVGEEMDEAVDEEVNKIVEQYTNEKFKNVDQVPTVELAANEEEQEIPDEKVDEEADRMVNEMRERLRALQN

[2] = target: T1, Vps24 (Saccharomyces cerevisiae …); test: negative-stain electron microscopy; purified protein looked at for filaments, 2% uranyl acetate; wild type at 0.5 to 4.0 mg/ml incubated for 1 or 24 hours; both purified
[3] = target: T1, Vps24 (Saccharomyces cerevisiae …); test: cryo-EM structure; helical reconstruction of filaments of purified Vps24 concentrated to 5.0 mg/ml, 4°C overnight, polymers enriched by ultracentrifugation; 100 mM NaCl, 20 mM tris (pH 8); domain-swapped dimers in a double-stranded filament; both purified

binding [1]: binds
binding [2]: binds
binding [3]: binds
B1: Vps24 (Saccharomyces cerevisiae ESCRT-III subunit), full length, wild type, P36095 1-224 (protein)
chain: T1 chain
